Some of the results follow. The main result of the screen is listed elsewhere. These columns were measured beside it and carry no call. Most of these compounds were active or inconclusive in the main read-out, so they are no random draw. Words in brackets tell the shape of the fitted curve; partial curves, single points and poor fits give uncertain potencies.
Test: qHTS Assay to Find Inhibitors of Chronic Active B-Cell Receptor Signaling
Settings: ABC-DLBCL IkBa-CBG/CBR reporter, luminescence ratio (green luciferase fused to IkBa over red control in TMD8 lymphoma cells), 4 h
Procedure, shortened: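 Compounds up to 46 uM were incubated four hours with TMD8 cells whose green CBG68 luciferase is fused to IkappaBalpha; red CBR luminescence normalised the signal, and concentration-effect curves were fitted to fusion, red and ratio data.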

[1] = measured here: CBR red luminescence, cell number
[2] = measured here: IkBa-CBG green luminescence

SMILES	AC50 [1]	AC50 [2]
O=C(O)CSc1nc(SCc2ccccc2Cl)nc2c1CCCC2	1.64 µM [falling, full curve]	
Clc1ccc(-c2noc(CSc3nnc(-c4ccncc4)n3-c3ccccc3)n2)cc1	29.1 µM [falling, single point]	
O=C(CSc1nnc(-c2ccc(S(=O)(=O)N3CCOCC3)cc2)o1)c1ccccc1F	0.316 µM [rising, full curve, poor fit]	
Cc1c(Cl)cccc1NC(=O)c1cc(C2CC2)on1	12.6 µM [falling, partial curve]	
COc1cc2nc(C3CCC3)nc(N3CCN(c4ccccc4OC)CC3)c2cc1OC	29.1 µM [falling, single point]	
O=C1/C(=C\c2ccc(O)cc2)SC(=S)N1Cc1ccccc1	17.8 µM [rising, single point]	
O=C(OCC(=O)N1CCN(C(=O)c2ccco2)CC1)c1cccc(O)c1	0.0891 µM [falling, full curve, poor fit]	
CCSc1nnc(-c2cccc(S(=O)(=O)N(CC)CC)c2)n1Cc1ccccc1	17.8 µM [falling, single point]	
Cc1ccccc1N1C(=O)CC(N2CCN(C(=O)c3ccco3)CC2)C1=O (configuration not stated)	5.62 µM [rising, partial curve, poor fit]	
COc1ccc(N2CC(=O)N(c3ccccc3)C2=S)cc1	16.4 µM [falling, single point]	
O=C1NCCCC1C(=O)N/N=C/c1ccc(Cl)cc1 (configuration not stated)	5.01 µM [falling, partial curve, poor fit]	
O=C(COC(=O)c1cc(-c2cccs2)nc2ccccc12)NCc1ccco1	17.8 µM [falling, single point]	
COc1cc(OC)cc(C(=O)NC(=S)Nc2ccc3[nH]c(=O)[nH]c3c2)c1	3.16 µM [falling, partial curve, poor fit]	
Cc1cc(NC(=O)COC(=O)Cn2c(C)csc2=O)ccc1Br	3.98 µM [rising, partial curve]	
CCN(C(=O)C1CCCN(c2nc(-c3ccc(OC)cc3)no2)C1)c1ccc(OC)cc1 (configuration not stated)	25.1 µM [falling, single point]	
CN(C)c1ccc(/C=N/n2cnn(Cc3ccccc3Cl)c2=S)cc1	2.51 µM [rising, partial curve]	
COc1ccc(C2=NN(C)C(=NCc3ccccc3)SC2)cc1	8.91 µM [rising, partial curve]	
CCNc1ccc(S(=O)(=O)N(C)C)cc1NCC(=O)Nc1c(F)cccc1F	4.61 µM [rising, partial curve, poor fit]	
CC1=CC(C)(C)Nc2ccc(OS(=O)(=O)c3ccc(C)cc3)cc21	8.91 µM [rising, partial curve, poor fit]	
COc1ccc2cc(CCNC(=O)c3ccco3)c(=O)[nH]c2c1	1.12 µM [rising, partial curve]	
CSc1nc(N)nc(SCC(=O)C(C)(C)C)c1C#N	6.51 µM [rising, single point]	

SMILES	AC50 [1]	AC50 [2]
COc1cc2c(cc1OC)C1C(C(=O)Nc3ccccc3N3CCN(C)CC3)c3ccccc3C(=O)N1CC2 (configuration not stated)	35.5 µM [falling, partial curve, poor fit]	
S=c1[nH]c(-c2ccc(Br)cc2)cn1CCc1ccccc1	0.447 µM [rising, full curve]	
Cc1ccnc(NC(=O)c2cnc(Cl)c(Cl)c2)c1	12.6 µM [falling, single point]	8.91 µM [rising, partial curve, poor fit]
COc1ccc(C(=O)NC(=S)NNC(=O)c2ccccc2O)cc1	10 µM [falling, partial curve, poor fit]	
CC1CCN(C(=O)CS(=O)(=O)Cc2ccccc2)CC1	0.891 µM [rising, full curve, poor fit]	
CC1=CC(=O)C=C(C)C1=NOc1ccc([N+](=O)[O-])cc1	6.31 µM [rising, partial curve]	
O=C(NCCc1ccccc1)c1nc2ncccn2n1	4.61 µM [falling, partial curve, poor fit]	
Cc1ccc(C)c(NC(=O)CSc2n[nH]c(-c3ccncc3)n2)c1	18.4 µM [rising, partial curve, poor fit]	
CN(C)c1ccc(NC(=S)c2ccccn2)cc1	6.51 µM [falling, partial curve]	
Brc1ccc2ncnc(NCc3cccnc3)c2c1	3.55 µM [rising, partial curve, poor fit]	
COc1ccc(NC(=O)CSc2nc3sc(C)cc3c(=O)n2C)cc1	0.0891 µM [rising, full curve, poor fit]	
Cc1c(NC(=O)C2(c3ccc(Cl)cc3)CCCC2)c(=O)n(-c2ccccc2)n1C	14.6 µM [rising, partial curve, poor fit]	
COc1ccc(-c2nnc(SCC(=O)c3ccc(O)cc3O)o2)cc1	5.01 µM [falling, partial curve]	
COc1cc(NC(=O)c2cccc([N+](=O)[O-])c2)ccc1NC(=O)c1ccco1	2.82 µM [rising, partial curve, poor fit]	
O=C(O)/C=C/C(=O)Nc1ccc(C2(c3ccc(NC(=O)/C=C/C(=O)O)cc3)c3ccccc3-c3ccccc32)cc1		22.4 µM [rising, partial curve, poor fit]
CCOC(=O)Cc1csc(NC(=O)/C=C/c2ccc(Br)o2)n1	3.55 µM [falling, partial curve]	
COCCN(Cc1cn(C)nc1-c1ccc(Oc2ccccc2)cc1)C(C)C	7.08 µM [rising, partial curve]	
O=C(COC(=O)c1cc(S(=O)(=O)NCc2ccccc2)ccc1O)c1cc2ccccc2o1	20 µM [falling, single point]	
COc1ccc(C(=O)CSc2nc3[nH]ncc3c(=O)[nH]2)cc1	11.2 µM [falling, partial curve, poor fit]	
CN(Cc1ccccc1)C(=O)CSc1nc2ccccc2c(=O)n1Cc1ccco1	20 µM [falling, partial curve, poor fit]	

Single entries from above.
Under AC50 [1], `Cc1cc(NC(=O)COC(=O)Cn2c(C)csc2=O)ccc1Br` reads 3.98 µM [rising, partial curve]
Under AC50 [1], `CN(Cc1ccccc1)C(=O)CSc1nc2ccccc2c(=O)n1Cc1ccco1` reads 20 µM [falling, partial curve, poor fit]
